From the supplement of paper PMC5949888
Most values lie at the floor of the assay. Slopes are relative: functional sequences can read slightly below zero.

tested on: Saccharomyces cerevisiae PS128 hsf1 delta, HSF1(1-493) fusion; assay: growth estimate (transactivation domain function in HSF1 fusion, heat-shock survival) (a.u. (slope of normalised read count over time)); higher = stronger growth at 37°C, i.e. more transactivation activity; settings: library: random library

| Substance | growth estimate |
| --- | --- |
| TFAFQRKQPNTSIQ | < -0.25 |
| IEKAVTHTPNDINEMDMN | < -0.25 |
| DGGDRVTVTGVICARWDRPG | < -0.25 |
| GTGGRVS | < -0.25 |
| FDPCRQVHG | < -0.25 |
| ENDRFFSGTTPDHIRGAVHC | < -0.25 |
| EGMAA | < -0.25 |
| VALVEALAYS | < -0.25 |
| YHVNVGMNLDGQKGENVASW | -0.199 |
| TDHWASKSSNLTLLVGRTML | < -0.25 |
| SIVTYRAWNHLSCSLVASVL | < -0.25 |
| SCLLPGLPEDLRSQVMGWLT | -0.25 |
| LGLRQLTSLQIQTEPDARRS | < -0.25 |
| VVEDWLAL | 4.02 |
| RLPGLCYEGARRGFHTARQP | < -0.25 |
| LNVLREGTPQKRHFLRFRPI | < -0.25 |
| RVAS | -0.172 |
| HSTCRAAV | < -0.25 |
| WYAVVRYPAQFERN | < -0.25 |
| EQEDDVPVIDWGASRWH | < -0.25 |
| LVNLLRNLERRCTPGSRSGL | < -0.25 |
| SRTG | < -0.25 |
| VPREE | < -0.25 |
| CSTETRVRKTRYDVYMT | < -0.25 |
| PVAGEPGFNLFLKS | < -0.25 |

| Substance | growth estimate |
| --- | --- |
| LINRSCRAAPTF | -0.245 |
| QKALIRLAVP | < -0.25 |
| FWVCIRRHPLNIGSADTSLG | < -0.25 |
| DRDSELNRHGVTIVFPRIAG | < -0.25 |
| IIGQAFLAGVGQSLSASSAA | < -0.25 |
| LTPVSFAVEFEV | < -0.25 |
| PGTLSVQPIRG | < -0.25 |
| TGVTHRQVRSKFVMLICPVH | < -0.25 |
| QALCILGVGAPRRCSPPQST | < -0.25 |
| GPCC | < -0.25 |
| AQQHGPYEPTDTRKGGHRLS | < -0.25 |
| RED | < -0.25 |
| VNLQF | < -0.25 |
| LILC | < -0.25 |
| RRGIILNIRSGSLP | < -0.25 |
| SAAAY | < -0.25 |
| GVLFAVGLALLKSAGSLSVP | < -0.25 |
| GILNTVNVSPAARAWYSL | < -0.25 |
| PPHSG | < -0.25 |
| VCGMLIPICWDSVYSLRSKL | < -0.25 |
| IFE | < -0.25 |
| RSGVKRGKTTAHSIA | < -0.25 |
| EFISASRASFYNRFIKWFAS | < -0.25 |
| KQPLIVSFHSSGMPVPGRVN | < -0.25 |
| LSLRNSM | < -0.25 |

Looked up above.
In growth estimate, LSLRNSM has the entry < -0.25
In growth estimate, VNLQF has the entry < -0.25

Next part.

| Substance | growth estimate |
| --- | --- |
| QYGRSALLPNGCRVLL | < -0.25 |
| LDFPS | -0.179 |
| DFSIHPKGSLDATAGDRLLR | < -0.25 |
| AVCRVCPTASGSSTEILLV | < -0.25 |
| SCVKPRLL | < -0.25 |
| AVGYVR | < -0.25 |
| VLIKRDT | < -0.25 |
| GQLIRVR | < -0.25 |
| LGSLQNSGTVASNSLSKTRL | < -0.25 |
| FSVRK | < -0.25 |
| RSICARPPGSVLLHSRFKIS | < -0.25 |
| EFRWVRGGRAKI | < -0.25 |
| VVFRLVRLLACQSASEPWVS | < -0.25 |
| TVESLVFDHASGGGGLRQVE | < -0.25 |
| RSTVVPH | < -0.25 |
| MGIRWRARFRSE | < -0.25 |
| AGGAVEYRLENCANLPHTGR | < -0.25 |
| IPFLAAIALNQFLEEVNPGP | < -0.25 |
| CGNSGSFTAGS | < -0.25 |
| PYYGNLQYDQREGHKCRVLE | < -0.25 |
| CRFSS | < -0.25 |
| QGKEDSAAMPYARVPRLVPT | < -0.25 |
| ASAPEEGGMDDRGQEYLGQM | -0.246 |
